Data: patent US9861625B2, “Methods and compositions for treating cancer through inhibition of PI3K” (Duke University, priority 2014, dated 2018)
Some entries share one result that the patent states for a list of compounds.

Tested on: Sixty cell lines representing blood cancer histologies
Experiment: Sensitivity to PI3K inhibition in sixty cancer cell lines (MTT)
Assay type: cell-based
Description: A total of 60 cell lines representative of different cancer types were obtained from the ATCC and grown and maintained in accordance with the provided guidelines. The cell lines represented the following distinct histologies: mantle cell lymphoma (5 lines: JVM13, Rec1, Mino, JVM2, Jeko); germinal center B-cell derived (“GCB”) DLBCL (19 lines: Farage, BJAB, Ly1, Ly2, Ly7, Ly8, Ly19, HBL2, HT, Karpas422, Pfeiffer, RCK8, RL, Sci-1, Ski, SUDHL4, SUDHL7, Toledo, WSU-NHL); primary mediastinal B-cell lymphoma (“PMBL”) (3 lines: K1106, MEDB1, U2940); Burkitt lymphoma (11 lines: Daudi, CA46, EB1, EB2, EB3, Jijoye, Raji, Ramos, Namwala, BL2, BL41); Hodgkin lymphoma (3 lines: RMPI6666, L1236, L428); activated B-cell derived (“ABC”) DLBCL (6 lines: Ly3, HBL1, TMD8, Ly10, Riva, U2932); multiple myeloma (6 lines: U266, SKMM1, RPMI8226, KMS12, IM9, H929); acute myelogenous leukemia (“AML”) (2 lines: U937, KG1); acute lymphoblastic leukemia (“ALL”) (2 lines: Reh, SR); and T-cell lymphoma (3 lines: Molt4, RPMI8402, Jurkat). The cell lines were tested within six months after resuscitation.
The 3-(4,5-dimethylthiazol-2-yl)-2,5-diphenyltetrazolium bromide (MTT) cell viability assay was used to determine cell viability in response to drug treatment. Five replicates per concentration tested were carried out in serial dilutions with a total of ten concentrations with a 50% reduction in drug concentration per dilution for each plate. A total of 15 μl of MTT reagent was added to each drug-treated well and incubated for three hours in 37° C. Detergent was added to each drug-treated well and incubated overnight at room temperature without exposure to light. Absorbance was measured at 570 nm using a plate reader from Tecan Group. The IC50 concentration was determined using the publicly available ED50 plus v1.0 software program. […]

SMILES	difference in observed IC50s between predicted sensitive and predicted resistant cell lines (training set cell lines, Bayesian probability 0.9 or higher / 0.1 or lower, P<0.01)	difference between the IC50s of the predicted sensitive and predicted resistant groups (validation set cell lines, P=0.14)	difference of IC50s between predicted sensitive and resistant cases (validation set, Bayesian probability greater or less than 0.5, P=0.01)
Cn1c(=O)n(-c2ccc(C(C)(C)C#N)cc2)c2c3cc(-c4cnc5ccccc5c4)ccc3ncc21 [BEZ235]	more than 2 fold	more than 2 fold	
COc1ccc(-c2ccc3ncc4c(c3c2)n(-c2ccc(N3CCNCC3)c(C(F)(F)F)c2)c(=O)n4C)cn1 [BGT226]			more than 2 fold
